Reference: PubChem BioAssay AID334 (DTP/NCI, 2004)
The list is a part of this screen's results and no random one: it gathers tests that were run many times, whatever their T/C, doses with no T/C, and many T/C values between a quarter and a half above the control. Other doses and runs of a compound stand elsewhere. T/C is the treated group as % of the vehicle group. Some entries give survivors of the animals treated and no T/C: the source files T/C as zero there, which appears to mark a toxic dose or a test without result, not a measured value. Some survivor counts are full or nearly so, which does not show that the dose was tolerated: the source hardly ever lists a survival T/C far under the control, and the zero likely stands for such cases as well. Counts of survivors are from the toxicity check (mostly the fifth day) where no day follows; animals may have died later. Schedules are NCI's codes, read here as Q, the interval in days (D) or hours (H), X, the number of doses. Some doses were run more than once; the results are listed from low to high. Where survival is the endpoint, the PubChem record calls one and a half times the control and up active, and a quarter to a half above the control has no call in these data; cut-offs in other NCI protocols can differ. Some T/C values are followed by the survivors on the day toxicity was checked, most often the fifth; where none is given, no animal had died by that day.

System: CD2F1 mice, intracerebral P388 leukemia, median survival T/C%
Experiment: NCI In Vivo Anticancer Drug Screen. Data for tumor model P388 Leukemia (intracerebral) in CD2F1 (CDF1) mice
Conditions: T/C endpoint: median survival time, higher T/C = longer survival
Procedure: The antitumor activity of compounds was measured in mice bearing transplantable tumors. Survival or tumor size were measured and the results are expressed as the measurement made in the treated group (T) divided by the measurement made in the vehicle treated control group (C). The tumor model used in this assay is P388 Leukemia (intracerebral) in CD2F1 (CDF1) mice

[1] = dose: 4.0 mg/kg/injection, schedule: Q03HX008 (ip), vehicle: saline
[2] = dose: 200.0 mg/kg/injection, schedule: Q01DX009 (ip), vehicle: saline
[3] = dose: 400.0 mg/kg/injection, schedule: Q01DX009 (ip), vehicle: saline
[4] = dose: 100.0 mg/kg/injection, schedule: Q04DX003 (ip), vehicle: saline
[5] = dose: 16.0 mg/kg/injection, schedule: Q01DX009 (ip), vehicle: saline
[6] = dose: 32.0 mg/kg/injection, schedule: Q01DX009 (ip), vehicle: saline

Q: With `COc1ccc2c(c1)CCC(c1ccccc1)=C2c1ccc(OCCN2CCCC2)cc1` as the molecule, how does the survivor count (dose: 96.0 mg/kg/injection, schedule: Q01DX005 (ip), vehicle: Klucel (hydroxypropylcellulose) (HPC)) read?
A: Its survivor count is 10 of 10.

Q: For `N[C@@H](Cc1ccc(N(CCCl)CCCl)cc1)C(=O)O`, which T/C (dose: 1.0 mg/kg/injection, schedule: Q03HX008 (ip), vehicle: saline, evaluated on day 30) is on record?
A: Its T/C is 115 and 115 % of control [9 of 10 alive].

Q: And the T/C (dose: 1.0 mg/kg/injection, schedule: Q03HX008 (ip), vehicle: saline, evaluated on day 50)?
A: Its T/C is 100 and 127 % of control.

Q: What about the T/C (dose: 2.0 mg/kg/injection, schedule: Q03HX008 (ip), vehicle: saline, evaluated on day 30) of the same molecule?
A: Its T/C is 126 [9 of 10 alive] and 147 % of control.

Q: What about the T/C (dose: 2.0 mg/kg/injection, schedule: Q03HX008 (ip), vehicle: saline, evaluated on day 50) of the same molecule?
A: The T/C was 140 and 145 % of control.

Q: What about the T/C [1] of the same molecule?
A: The T/C was 120 % of control.

Q: And the survivor count [1]?
A: Its survivor count is 10 of 10 and 6 of 6.

Q: And the survivor count (dose: 8.0 mg/kg/injection, schedule: Q03HX008 (ip), vehicle: saline)?
A: Its survivor count is 1 of 6, 7 of 10, 9 of 10, 6 of 6.

Q: What about the survivor count (dose: 16.0 mg/kg/injection, schedule: Q03HX008 (ip), vehicle: saline) of the same molecule?
A: Its survivor count is 0 of 6.

Q: And the survivor count (dose: 32.0 mg/kg/injection, schedule: Q03HX008 (ip), vehicle: saline)?
A: Its survivor count is 0 of 6.

Q: How did the survivor count (dose: 512.0 mg/kg/injection, schedule: Q01DX009 (ip), vehicle: saline) turn out when `CC/C(=C(/CC)c1ccc(O)cc1)c1ccc(O)cc1` was run?
A: Its survivor count is 6 of 6.

Q: For `CCN(C)N=Nc1ccc(C(N)=O)cc1`, which T/C (dose: 50.0 mg/kg/injection, schedule: Q01DX009 (ip), vehicle: Klucel (hydroxypropylcellulose) (HPC)) is on record?
A: Its T/C is 125 % of control.

Q: And the survivor count (dose: 200.0 mg/kg/injection, schedule: Q01DX009 (ip), vehicle: Klucel (hydroxypropylcellulose) (HPC))?
A: Its survivor count is 6 of 6.

Q: With `O=[N+]([O-])O.[Ga]` as the molecule, how does the survivor count (dose: 256.0 mg/kg/injection, schedule: Q01DX005 (ip), vehicle: saline) read?
A: The survivor count was 0 of 10.

Q: What does the source list for `CCCCCCCCCCCCCCCCCC(=O)NC(Cc1ccc(N(CCCl)CCCl)cc1)C(=O)O` (configuration not stated)?
A: T/C (dose: 7.5 mg/kg/injection, schedule: Q03HX008 (ip), vehicle: saline): 126 % of control; T/C (dose: 15.0 mg/kg/injection, schedule: Q03HX008 (ip), vehicle: saline): 136 % of control [9 of 10 alive]; survivor count (dose: 30.0 mg/kg/injection, schedule: Q03HX008 (ip), vehicle: saline): 8 of 10; survivor count (dose: 60.0 mg/kg/injection, schedule: Q03HX008 (ip), vehicle: saline): 0 of 10

Q: How did the survivor count [2] turn out when `CC1(C)N=C(N)N=C(N)N1c1ccc(CCC(=O)Nc2ccc(S(=O)(=O)F)cc2)cc1` was run?
A: The survivor count was 5 of 6.

Q: What about the survivor count [3] of the same molecule?
A: Its survivor count is 5 of 6.

Q: With `CC1(C)N=C(N)N=C(N)N1c1ccc(OCCOc2ccc(S(=O)(=O)F)cc2)c(Cl)c1` as the molecule, how does the T/C [4] read?
A: The T/C was 133 % of control.

Q: And the T/C (dose: 200.0 mg/kg/injection, schedule: Q04DX003 (ip), vehicle: saline)?
A: Its T/C is 138 % of control.

Q: Which survivor count (dose: 42.4 mg/kg/injection, schedule: Q03HX008 (ip), vehicle: saline) does the source give for `CCCCCC(=O)NC(Cc1ccc(N(CCCl)CCCl)cc1)C(=O)O` (configuration not stated) here?
A: Its survivor count is 2 of 10.

Q: How did the T/C (dose: 12.0 mg/kg/injection, schedule: Q01DX009 (ip), vehicle: saline with Tween-80) turn out when `CC(C)(C)N1CC1CNC(=O)C(=O)NCC1CN1C(C)(C)C` (configuration not stated) was run?
A: The T/C was 146 % of control.

Q: And the T/C (dose: 12.5 mg/kg/injection, schedule: Q01DX009 (ip), vehicle: saline with Tween-80)?
A: The T/C was 139 % of control.

Q: What about the survivor count (dose: 25.0 mg/kg/injection, schedule: Q01DX009 (ip), vehicle: saline with Tween-80) of the same molecule?
A: The survivor count was 10 of 10.

Q: What about the survivor count (dose: 50.0 mg/kg/injection, schedule: Q01DX009 (ip), vehicle: saline with Tween-80) of the same molecule?
A: Its survivor count is 7 of 10 and 9 of 10.

Q: What about the survivor count (dose: 100.0 mg/kg/injection, schedule: Q01DX009 (ip), vehicle: saline with Tween-80) of the same molecule?
A: Its survivor count is 0 of 10.

Q: `CC1(C)N=C(N)N=C(N)N1c1ccc(CCCCc2ccc(Cl)c(S(=O)(=O)F)c2)c(Cl)c1` was tested. Which survivor count (dose: 40.0 mg/kg/injection, schedule: Q01DX009 (ip), vehicle: saline) did it give?
A: The survivor count was 4 of 6.

Q: How did the T/C [3] turn out when `NC(=O)c1csc(C2OC(CO)C(O)C2O)n1` (configuration not stated) was run?
A: The T/C was 142 % of control.

Q: With `CCCCCCCC/C=C/CCCCCCCC(=O)Nc1ccn(C2OC(CO)C(O)C2O)c(=O)n1` (configuration not stated) as the molecule, how does the survivor count (dose: 100.0 mg/kg/injection, schedule: Q01DX009 (ip), vehicle: saline) read?
A: The survivor count was 9 of 10.

Q: What about the survivor count [2] of the same molecule?
A: Its survivor count is 4 of 10.

Q: For `CN(C)CC(=O)c1ccc(O)c(O)c1`, which survivor count (dose: 800.0 mg/kg/injection, schedule: Q01DX005 (ip), vehicle: saline) is on record?
A: The survivor count was 2 of 8.

Q: And the survivor count (dose: 800.0 mg/kg/injection, schedule: Q01DX005 (ip), vehicle: suspension in saline)?
A: The survivor count was 6 of 10.

Q: Which survivor count (dose: 400.0 mg/kg/injection, schedule: Q01DX009 (ip), vehicle: saline with Tween-80) does the source give for `O=C1N(Cl)C(=O)C(c2ccc(Cl)cc2)(c2ccc(Cl)cc2)N1Cl` here?
A: Its survivor count is 9 of 10.

Q: What does the source list for `Nc1ccc2nc3ccc(N)cc3[n+](-c3ccccc3)c2c1`?
A: survivor count [5]: 4 of 6; survivor count [6]: 2 of 6

Q: With `CN1CC[C@]23c4c5ccc(O)c4O[C@H]2C(=O)CC[C@H]3[C@H]1C5` as the molecule, how does the survivor count (dose: 25.0 mg/kg/injection, schedule: Q01DX005 (iv), vehicle: saline) read?
A: Its survivor count is 1 of 6.

Q: What about the survivor count (dose: 50.0 mg/kg/injection, schedule: Q01DX005 (iv), vehicle: saline) of the same molecule?
A: Its survivor count is 0 of 6.

Q: `CCC(=O)O[C@H]1CC[C@H]2[C@@H]3CC[C@H]4CC(=O)[C@H](C)C[C@]4(C)[C@H]3CC[C@]12C` was tested. Which T/C (dose: 512.0 mg/kg/injection, schedule: Q01DX009 (ip), vehicle: Klucel (hydroxypropylcellulose) (HPC)) did it give?
A: Its T/C is 125 % of control.

Q: Which results are given for `CCN(CC)CCCC(C)Nc1c2ccc(Cl)cc2nc2ccc(OC)cc12` (configuration not stated)?
A: survivor count (dose: 128.0 mg/kg/injection, schedule: Q01DX009 (ip), vehicle: suspension in saline): 0 of 10; survivor count (dose: 256.0 mg/kg/injection, schedule: Q01DX009 (ip), vehicle: suspension in saline): 0 of 10

Q: For `CC(=O)O[C@H]1C(=O)[C@@]2(C)[C@H]([C@H](OC(=O)c3ccccc3)[C@]3(O)C[C@H](OC(=O)[C@H](O)[C@@H](NC(=O)c4ccccc4)c4ccccc4)C(C)=C1C3(C)C)[C@]1(OC(C)=O)CO[C@@H]1C[C@@H]2O`, which survivor count (dose: 40.0 mg/kg/injection, schedule: Q01DX009 (ip), vehicle: Klucel (hydroxypropylcellulose) (HPC)) is on record?
A: The survivor count was 7 of 10.

Q: Which T/C (dose: 12.8 mg/kg/injection, schedule: Q03HX008 (ip), vehicle: saline) does the source give for `CCCCCCOC(=O)C(N)Cc1ccc(N(CCCl)CCCl)cc1` (configuration not stated) here?
A: Its T/C is 126 % of control.

Q: And the T/C (dose: 25.5 mg/kg/injection, schedule: Q03HX008 (ip), vehicle: saline)?
A: The T/C was 147 % of control.

Q: What about the survivor count (dose: 51.0 mg/kg/injection, schedule: Q03HX008 (ip), vehicle: saline) of the same molecule?
A: The survivor count was 9 of 10.

Q: With `Nc1nc2c(c(=O)[nH]1)N(C=O)C(CNc1ccc(C(=O)N[C@@H](CCC(=O)O)C(=O)O)cc1)CN2` (some centres not stated) as the molecule, how does the survivor count (dose: 1024.0 mg/kg/injection, schedule: Q01DX005 (ip), vehicle: suspension in saline) read?
A: Its survivor count is 6 of 10.

Q: With `N[C@H](C(=O)O)[C@@H]1CC(Cl)=NO1` as the molecule, how does the T/C (dose: 2.0 mg/kg/injection, schedule: Q01DX009 (ip), vehicle: saline) read?
A: Its T/C is 149 % of control.

Q: What about the survivor count [5] of the same molecule?
A: The survivor count was 9 of 10.

Q: And the survivor count [6]?
A: The survivor count was 10 of 10.

Q: How did the T/C (dose: 0.75 mg/kg/injection, schedule: Q01DX009 (ip), vehicle: DMSO) turn out when `COc1ccc2c(c1OC(C)=O)-c1cc(OC(C)=O)cc3c1C(C2)N(C(=O)CN(CCCl)CCCl)CC3` (configuration not stated) was run?
A: Its T/C is 146 % of control.

Q: What about the survivor count (dose: 12.5 mg/kg/injection, schedule: Q01DX009 (ip), vehicle: DMSO) of the same molecule?
A: Its survivor count is 10 of 10.

Q: What about the survivor count (dose: 25.0 mg/kg/injection, schedule: Q01DX009 (ip), vehicle: DMSO) of the same molecule?
A: Its survivor count is 10 of 10.

Q: What about the survivor count (dose: 50.0 mg/kg/injection, schedule: Q01DX009 (ip), vehicle: DMSO) of the same molecule?
A: Its survivor count is 3 of 10.

Q: What about the survivor count (dose: 100.0 mg/kg/injection, schedule: Q01DX009 (ip), vehicle: DMSO) of the same molecule?
A: The survivor count was 2 of 10.

Q: What about the survivor count (dose: 200.0 mg/kg/injection, schedule: Q01DX009 (ip), vehicle: DMSO) of the same molecule?
A: Its survivor count is 0 of 10.

Q: For `CC1(C)N=C(N)N=C(N)N1c1ccc(CNC(=O)Nc2cccc(S(=O)(=O)F)c2)cc1`, which T/C [4] is on record?
A: Its T/C is 133 % of control.
